Data reported in article PMC6636018.
These are yes or no findings as the source states them, for the method shown. Binding seen in cells or lysates may run through a third protein. Some entries that bind do so weakly or less than the wild type. Where a sequence is shown, tags or fusion partners need not be part of it.

The chains behind the UniProt entries cited, without tags or fusion partners.
UniProt Q00987: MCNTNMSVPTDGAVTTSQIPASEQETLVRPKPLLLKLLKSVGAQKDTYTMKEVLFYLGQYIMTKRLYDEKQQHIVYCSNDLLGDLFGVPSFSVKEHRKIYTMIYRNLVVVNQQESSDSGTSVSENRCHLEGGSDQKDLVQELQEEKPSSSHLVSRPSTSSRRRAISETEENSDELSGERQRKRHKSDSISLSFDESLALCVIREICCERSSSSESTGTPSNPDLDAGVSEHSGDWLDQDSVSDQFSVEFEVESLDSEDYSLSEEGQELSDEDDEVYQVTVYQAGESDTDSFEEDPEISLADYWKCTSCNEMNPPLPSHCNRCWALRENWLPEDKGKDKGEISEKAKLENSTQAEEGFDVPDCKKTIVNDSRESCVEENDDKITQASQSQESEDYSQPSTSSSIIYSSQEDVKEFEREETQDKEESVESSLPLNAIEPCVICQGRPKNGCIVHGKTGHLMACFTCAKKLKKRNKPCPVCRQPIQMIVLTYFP

Biological target: T1, Flag-PHLDB2 (UniProt Q86SQ0)
T1 sequence: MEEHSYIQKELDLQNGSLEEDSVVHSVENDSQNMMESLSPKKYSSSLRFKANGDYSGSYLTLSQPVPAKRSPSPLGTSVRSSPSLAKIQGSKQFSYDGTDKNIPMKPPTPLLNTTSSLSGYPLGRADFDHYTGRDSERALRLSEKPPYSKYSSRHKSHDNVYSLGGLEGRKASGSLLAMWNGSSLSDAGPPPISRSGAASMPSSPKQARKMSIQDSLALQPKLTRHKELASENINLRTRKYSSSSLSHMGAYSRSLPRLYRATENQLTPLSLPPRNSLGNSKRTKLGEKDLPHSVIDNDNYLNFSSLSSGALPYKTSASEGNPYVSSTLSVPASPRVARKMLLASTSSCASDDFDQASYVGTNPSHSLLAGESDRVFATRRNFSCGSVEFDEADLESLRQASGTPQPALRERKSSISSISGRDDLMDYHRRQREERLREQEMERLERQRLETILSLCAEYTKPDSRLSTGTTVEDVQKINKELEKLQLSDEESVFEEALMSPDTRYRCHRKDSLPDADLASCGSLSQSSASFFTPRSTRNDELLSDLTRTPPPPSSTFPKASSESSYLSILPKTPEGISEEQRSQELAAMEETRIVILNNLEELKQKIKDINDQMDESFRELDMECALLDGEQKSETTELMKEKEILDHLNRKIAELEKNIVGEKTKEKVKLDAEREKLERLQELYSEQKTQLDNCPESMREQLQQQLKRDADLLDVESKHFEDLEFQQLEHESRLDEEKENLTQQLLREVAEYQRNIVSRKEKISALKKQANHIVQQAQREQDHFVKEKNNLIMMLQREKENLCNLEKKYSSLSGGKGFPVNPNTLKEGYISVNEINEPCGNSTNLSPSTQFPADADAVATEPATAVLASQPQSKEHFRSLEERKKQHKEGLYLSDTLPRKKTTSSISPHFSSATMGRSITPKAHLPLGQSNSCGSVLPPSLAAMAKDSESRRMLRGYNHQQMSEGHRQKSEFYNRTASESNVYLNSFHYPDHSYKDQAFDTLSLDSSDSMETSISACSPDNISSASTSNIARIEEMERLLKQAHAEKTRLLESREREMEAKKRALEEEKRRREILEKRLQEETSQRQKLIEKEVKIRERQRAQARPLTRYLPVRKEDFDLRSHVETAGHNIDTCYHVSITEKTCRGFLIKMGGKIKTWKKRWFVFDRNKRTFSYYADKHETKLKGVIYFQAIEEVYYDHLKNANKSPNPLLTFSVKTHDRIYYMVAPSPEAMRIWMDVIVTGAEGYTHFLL
Assay: co-IP; HCT116 p53-/- cells transfected with HA-MDM2 with or without Flag-PHLDB2; lysate harvested 48 h post-transfection; precipitated with anti-Flag antibody, Western blot

HA-MDM2 (from UniProt Q00987 1-491)
binding: binds
